# The supplement of paper PMC8728848
# This is one part of the list.
# Assays:
# Assay in all cases: glycan array binding signal (z-score within array); higher = stronger binding
# Details in all cases: glycan notation: IUPAC condensed, linker removed
# [1] = target: GlcNAc(b1-3)Gal(b1-4)GlcNAc(b1-3)Gal(b1-4)GlcNAc(b1-3)GalNAc
# Outline: (§1)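 From the Consortium for Functional Glycomics database, 3228 arrays were curated, keeping only those whose protein sequence was available. Binding is given as a within-array Z-score averaged across arrays sharing a protein sequence and across linkers. Negative Z-scores can be read as non-binding.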
# [2] = target: GlcNAc(b1-3)Gal(b1-4)GlcNAc(b1-3)GalNAc
# Outline: as §1
# [3] = target: GlcNAc(b1-3)Gal(b1-4)GlcNAc(b1-3)[GlcNAc(b1-3)Gal(b1-4)GlcNAc(b1-3)]GalNAc
# Outline: as §1
# [4] = target: GlcNAc(b1-3)Gal(b1-4)GlcNAc(b1-6)[Gal(b1-3)]GalNAc
# Outline: as §1
# [5] = target: GlcNAc(b1-3)Gal(b1-4)GlcNAc(b1-6)[GlcNAc(b1-3)Gal(b1-3)]GalNAc
# Outline: as §1
# [6] = target: GlcNAc(b1-3)Gal(b1-4)GlcNAc(b1-6)[GlcNAc(b1-3)]Gal(b1-4)GlcNAc
# Outline: as §1
# GlcNAc(b1-3)GalNAc = target: GlcNAc(b1-3)GalNAc
# Outline: as §1
# GlcNAc(b1-3)Man = target: GlcNAc(b1-3)Man
# Outline: as §1
# [7] = target: GlcNAc(b1-3)[GlcNAc(b1-4)][GlcNAc(b1-6)]GlcNAc
# Outline: as §1
# [8] = target: GlcNAc(b1-3)[GlcNAc(b1-6)]Gal(b1-4)GlcNAc
# Outline: as §1
# [9] = target: GlcNAc(b1-3)[GlcNAc(b1-6)]GalNAc
# Outline: as §1
# [10] = target: GlcNAc(b1-4)Gal(b1-4)GlcNAc
# Outline: as §1
# GlcNAc(b1-4)GlcNAc = target: GlcNAc(b1-4)GlcNAc
# Outline: as §1
# [11] = target: GlcNAc(b1-4)GlcNAc(b1-4)GlcNAc
# Outline: as §1
# [12] = target: GlcNAc(b1-4)GlcNAc(b1-4)GlcNAc(b1-4)GlcNAc(b1-4)GlcNAc
# Outline: as §1
# [13] = target: GlcNAc(b1-4)GlcNAc(b1-4)GlcNAc(b1-4)GlcNAc(b1-4)GlcNAc(b1-4)GlcNAc
# Outline: as §1
# [14] = target: GlcNAc(b1-4)[GlcNAc(b1-6)]GalNAc
# Outline: as §1
# [15] = target: GlcNAc(b1-6)Gal(b1-4)GlcNAc
# Outline: as §1
# GlcNAc(b1-6)GalNAc = target: GlcNAc(b1-6)GalNAc
# Outline: as §1
# [16] = target: GlcNAc6S(b1-3)Gal(b1-4)GlcNAc
# Outline: as §1
# Kdn(a2-3)Gal(b1-3)GalNAc = target: Kdn(a2-3)Gal(b1-3)GalNAc
# Outline: as §1
# Kdn(a2-3)Gal(b1-3)GlcNAc = target: Kdn(a2-3)Gal(b1-3)GlcNAc
# Outline: as §1
# Kdn(a2-3)Gal(b1-4)Glc = target: Kdn(a2-3)Gal(b1-4)Glc
# Outline: as §1
# Kdn(a2-3)Gal(b1-4)GlcNAc = target: Kdn(a2-3)Gal(b1-4)GlcNAc
# Outline: as §1
# [17] = target: Kdn(a2-3)Gal(b1-4)[Fuc(a1-3)]GlcNAc
# Outline: as §1
# Kdn(a2-6)Gal(b1-4)GlcNAc = target: Kdn(a2-6)Gal(b1-4)GlcNAc
# Outline: as §1
# [18] = target: Man(a1-2)Man(a1-2)Man(a1-3)Man
# Outline: as §1
# [19] = target: Man(a1-2)Man(a1-2)Man(a1-6)[Man(a1-3)]Man
# Outline: as §1
# Man(a1-2)Man(a1-3)Man = target: Man(a1-2)Man(a1-3)Man
# Outline: as §1
# [20] = target: Man(a1-2)Man(a1-3)[Man(a1-2)Man(a1-6)]Man
# Outline: as §1
binder,measurement,setting,value
Awp1 (Candida glabrata) (protein) MSLITIFAFLIKATLVLSLDILTPTTLTGDQTFNEDVSVVSSLTLNDGSQYLFNNLLQIAPSSASVTANALAAVSVFTFSLPPSSSLSNSGTLIISNSNTGPSTEQHIVITPNVMANTGTITLSLAHTNTDSSSTLIIDPVTFYNTGTINYESIGSETNDPSLTGNILSIGSSGRTLQNLGTINLNAANSYYLLGTITENSGSINVQKGFLYVNALDFIGNTINLSTTTALAFISPVSQVVRVRGVFFGNIIASVGSSGTFSYNTQTGILTVTTNGVYSYDIGCGYNPALMSGQQETLSFQGNPYDTFLVLVNQPIPSDLTCAAVSSSITPSSSVEPSSSVVPSSSVEPSSSVEPSSSVEPSSSVEPSSSVEPSSSVEPSSSVEPSSSVEPSSSVEPSSSVEPSSSVEPSSSVEPSSSVEPSSSVEPSSSVEPSSSVEPSSSVEPSSSVEPSSSVEPSSLIVPSSSVEPSSSVLPSSSVVPSSSVEPSTPPIPSSSVEPSSSVVPSSPAVPSSSVEPSTPPIPSSSVVSASVFDTSSTLPSSPSVPPSSVSPSTISTPSSSAAPSSFCPTCVSSGTPPAPSSSAIVPTSSAGGGNGGDNREPGAAGQPGAAGQPGAAGQPGAAGQPGAAGQPGAAGQPGAAGQPGAAGQPGAAGQPGAAGQPGAGFGVGSEQPTPGAGAGSGSADGNQSGTGSGTGNGQQGSGQAGSGQAGSGQEGSGQAGSGQAGSGQAGSGQAGSGQAGLDNTASGQSEGGQASAMDGDQSGRDGQSNSGSLLQPNAQQGTGSGTGSDIGADQASGESPGQIGDAQPGSGTDQSSGRHSLAAEARTSQSHSLAADARTRSTTRQTSVIAPDTAPGTASGTAPGTAPGTAVVTTFHGCGTVNHKGMINILLALALLVLL,glycan array binding signal (z-score),[1],0.062
same,glycan array binding signal (z-score),[2],0.885
same,glycan array binding signal (z-score),[3],-0.258
same,glycan array binding signal (z-score),[4],-0.252
same,glycan array binding signal (z-score),[5],0.185
same,glycan array binding signal (z-score),[6],-1.44
same,glycan array binding signal (z-score),GlcNAc(b1-3)GalNAc,0.149
same,glycan array binding signal (z-score),GlcNAc(b1-3)Man,1.12
same,glycan array binding signal (z-score),[7],-0.877
same,glycan array binding signal (z-score),[8],-0.01
same,glycan array binding signal (z-score),[9],-0.612
same,glycan array binding signal (z-score),[10],1.07
same,glycan array binding signal (z-score),GlcNAc(b1-4)GlcNAc,-0.375
same,glycan array binding signal (z-score),[11],0.366
same,glycan array binding signal (z-score),[12],0.942
same,glycan array binding signal (z-score),[13],-0.639
same,glycan array binding signal (z-score),[14],-0.136
same,glycan array binding signal (z-score),[15],-0.45
same,glycan array binding signal (z-score),GlcNAc(b1-6)GalNAc,0.087
same,glycan array binding signal (z-score),[16],1.15
same,glycan array binding signal (z-score),Kdn(a2-3)Gal(b1-3)GalNAc,-1.24
same,glycan array binding signal (z-score),Kdn(a2-3)Gal(b1-3)GlcNAc,-0.653
same,glycan array binding signal (z-score),Kdn(a2-3)Gal(b1-4)Glc,0.597
same,glycan array binding signal (z-score),Kdn(a2-3)Gal(b1-4)GlcNAc,-0.054
same,glycan array binding signal (z-score),[17],-0.924
same,glycan array binding signal (z-score),Kdn(a2-6)Gal(b1-4)GlcNAc,0.866
same,glycan array binding signal (z-score),[18],-0.346
same,glycan array binding signal (z-score),[19],-1.38
same,glycan array binding signal (z-score),Man(a1-2)Man(a1-3)Man,-0.809
same,glycan array binding signal (z-score),[20],-0.34
